# PubChem BioAssay AID1259405 – NCATS – 2018
# Aim: 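Silenced genes that increase secreted GFP made by CHO cells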 (primary screen)
# Cell system: Chinese hamster CHO-K1 ovary cells with stable secreted eGFP expression
# Knock-down reagent: single siRNA against mouse genes, 0.8 pmol siRNA per well (2 µl of 400 nM stock)
# Duration: 3 days
# Measured: 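Percent of the per-plate non-targeting control median for intracellular GFP per well by laser scanning cytometry and for cell viability by ATP luminescence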
# Direction: GFP, % of control: higher = more GFP per well, higher productivity; viability (ATP), % of control: higher = more viable cells (more ATP)
# Call rule: 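Called active when intracellular GFP, relative to negative control, is at or above 120%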
# In all, the deposit lists about 50,000 reagents; this is a random part of them. About 4,000 of all reagents (8%) were called active. 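Mouse siRNA library applied to hamster cells; one well for each siRNA.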 Unmarked entries are inactive. Reagents against one gene are numbered here.
gene knocked down,reagent no.,"GFP, % of control","viability (ATP), % of control"
Mymk,1,90.9,84.9
Mymk,2,109,80.4
Mymk,3,180 (active),98.8
Mymk,4,84.7,83.9
Mymk,5,73.2,66.2
Mymk,6,91.3,99.6
Zfp68,1,67.1,59.8
Zfp68,2,64.2,67.2
Zfp68,3,66.7,66.6
Zfp62,1,65.9,69.4
Zfp62,2,68.9,68.8
Zfp62,3,85.3,72.1
Slc15a1,1,38.7,51.7
Slc15a1,2,118,94.8
Slc15a1,3,91.6,82.7
Srsf9,1,92.3,119
Srsf9,2,76.3,95.7
Ap3m2,1,73.5,75.6
Ap3m2,2,52.3,83.9
Ap3m2,3,108,77.9
Tfap2b,1,82.7,76.7
Tfap2b,2,72.9,66
Tfap2b,3,82.8,112
Atp6v0c,1,101,107
Atp6v0c,2,144 (active),112
Atp6v0c,3,76.5,89.8
Atp6v0c,4,101,93.5
Atp6v0c,5,101,107
Atp6v0c,6,116,89.4
Ehbp1l1,1,55.1,69.2
Ehbp1l1,2,70.6,90.6
Ehbp1l1,3,55.5,82.1
Or52h7,1,84.8,64.8
Or52h7,2,82.4,76.7
Or52h7,3,48.2,55.7
Deup1,1,95.3,114
Deup1,2,115,88.3
Deup1,3,119,124
Fam181b,1,48,30.4
Fam181b,2,69.8,51.4
Fam181b,3,74.6,62.4
Icam1,1,76.1,70.3
Icam1,2,80.2,66.9
Ccdc136,1,63.8,77
Ccdc136,2,89.7,92.1
Ccdc136,3,119,91.2
Il10,1,67.1,55.2
Il10,2,25.6,24.8
Il10,3,76.1,82.1
Or52s1b,1,132 (active),94
Or52s1b,2,62.1,53.9
Or52s1b,3,59.1,77.8
Or6c3b,1,15.3,22.2
Or6c3b,2,80.3,63
Or6c3b,3,71.3,91.6

Next part (8 carried over from the part before).
gene knocked down,reagent no.,"GFP, % of control","viability (ATP), % of control"
Il10,2,25.6,24.8
Il10,3,76.1,82.1
Or52s1b,1,132 (active),94
Or52s1b,2,62.1,53.9
Or52s1b,3,59.1,77.8
Or6c3b,1,15.3,22.2
Or6c3b,2,80.3,63
Or6c3b,3,71.3,91.6
Mrgpra1,1,91.1,76.8
Mrgpra1,2,63.1,76.6
Mrgpra1,3,94.6,88.8
Cacna1a,1,40.7,35.3
Cacna1a,2,74.2,69.1
Cacna1a,3,82.7,86.7
Bag2,1,61.9,83.8
Bag2,2,104,89.5
Bag2,3,71.9,133
Lrrc41,1,64.4,86
Lrrc41,2,83,52.1
Lrrc41,3,104,101
C1galt1c1,1,100,89.7
C1galt1c1,2,57.5,83.2
C1galt1c1,3,48.3,52.4
Abtb2,1,133 (active),117
Abtb2,2,56,88.2
Uggt1,1,68.6,36.1
Uggt1,2,77.3,118
Uggt1,3,61.3,66.3
Phlda3,1,95.8,90.5
Phlda3,2,56.6,57.9
Phlda3,3,66,132
Zfp105,1,62.7,39.4
Zfp105,2,67.2,93
Zfp105,3,67.5,60.8
Plcb3,1,137 (active),99.1
Plcb3,2,133 (active),118
Plcb3,3,116,89.9
